Assay results taken from the supplement of paper PMC10849652.
Some of the results follow.

Chains of the proteins cited; added tags and fusions are not shown. Lines headed by an entry give the natural chain unless they say otherwise; changes in a name come on top.
UniProt O00189: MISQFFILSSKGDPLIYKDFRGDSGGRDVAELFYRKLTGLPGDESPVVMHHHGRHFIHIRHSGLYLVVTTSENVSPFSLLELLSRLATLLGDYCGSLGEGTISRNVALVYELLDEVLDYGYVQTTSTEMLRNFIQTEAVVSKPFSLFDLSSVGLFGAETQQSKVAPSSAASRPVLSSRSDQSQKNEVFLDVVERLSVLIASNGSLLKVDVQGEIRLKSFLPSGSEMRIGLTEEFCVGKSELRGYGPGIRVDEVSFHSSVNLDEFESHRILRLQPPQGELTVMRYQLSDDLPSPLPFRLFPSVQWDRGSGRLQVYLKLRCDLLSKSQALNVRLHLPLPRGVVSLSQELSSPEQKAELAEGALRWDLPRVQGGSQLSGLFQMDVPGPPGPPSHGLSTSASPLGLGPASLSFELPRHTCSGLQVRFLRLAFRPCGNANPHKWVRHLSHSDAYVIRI
UniProt P13196: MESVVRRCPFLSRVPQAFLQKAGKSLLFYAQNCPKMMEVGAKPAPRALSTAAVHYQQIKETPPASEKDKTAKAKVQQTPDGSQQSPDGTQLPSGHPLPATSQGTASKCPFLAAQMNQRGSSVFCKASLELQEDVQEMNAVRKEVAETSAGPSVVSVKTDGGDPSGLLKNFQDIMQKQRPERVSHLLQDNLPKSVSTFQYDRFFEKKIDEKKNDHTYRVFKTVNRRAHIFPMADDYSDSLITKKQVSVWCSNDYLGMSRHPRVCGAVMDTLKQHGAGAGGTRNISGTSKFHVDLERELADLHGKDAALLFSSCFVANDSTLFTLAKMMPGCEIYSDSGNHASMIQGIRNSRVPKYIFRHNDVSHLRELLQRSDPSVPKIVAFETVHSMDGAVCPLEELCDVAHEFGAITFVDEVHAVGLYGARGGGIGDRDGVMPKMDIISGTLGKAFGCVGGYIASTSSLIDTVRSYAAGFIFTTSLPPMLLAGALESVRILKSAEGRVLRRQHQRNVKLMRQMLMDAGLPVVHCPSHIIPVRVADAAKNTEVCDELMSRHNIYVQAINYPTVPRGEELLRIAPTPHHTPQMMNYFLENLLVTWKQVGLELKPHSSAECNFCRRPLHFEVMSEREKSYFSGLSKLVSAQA
UniProt Q9BTT0: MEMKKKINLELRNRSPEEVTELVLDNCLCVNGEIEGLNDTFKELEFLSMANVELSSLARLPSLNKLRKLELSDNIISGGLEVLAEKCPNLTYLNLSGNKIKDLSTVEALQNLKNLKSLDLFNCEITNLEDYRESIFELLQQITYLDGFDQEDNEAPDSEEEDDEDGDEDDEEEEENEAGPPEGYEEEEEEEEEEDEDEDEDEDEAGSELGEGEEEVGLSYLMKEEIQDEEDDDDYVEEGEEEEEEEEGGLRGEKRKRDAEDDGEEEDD
UniProt Q6AI12: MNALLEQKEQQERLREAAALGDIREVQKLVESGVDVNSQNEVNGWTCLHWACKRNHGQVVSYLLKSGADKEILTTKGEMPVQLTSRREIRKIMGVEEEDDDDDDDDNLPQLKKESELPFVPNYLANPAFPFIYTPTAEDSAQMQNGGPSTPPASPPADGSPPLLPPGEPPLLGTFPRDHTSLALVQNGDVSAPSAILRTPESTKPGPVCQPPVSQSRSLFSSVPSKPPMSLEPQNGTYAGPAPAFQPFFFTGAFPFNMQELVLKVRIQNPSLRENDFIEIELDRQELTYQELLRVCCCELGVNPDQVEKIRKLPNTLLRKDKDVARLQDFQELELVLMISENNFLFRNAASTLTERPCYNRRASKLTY
UniProt Q6P6B7: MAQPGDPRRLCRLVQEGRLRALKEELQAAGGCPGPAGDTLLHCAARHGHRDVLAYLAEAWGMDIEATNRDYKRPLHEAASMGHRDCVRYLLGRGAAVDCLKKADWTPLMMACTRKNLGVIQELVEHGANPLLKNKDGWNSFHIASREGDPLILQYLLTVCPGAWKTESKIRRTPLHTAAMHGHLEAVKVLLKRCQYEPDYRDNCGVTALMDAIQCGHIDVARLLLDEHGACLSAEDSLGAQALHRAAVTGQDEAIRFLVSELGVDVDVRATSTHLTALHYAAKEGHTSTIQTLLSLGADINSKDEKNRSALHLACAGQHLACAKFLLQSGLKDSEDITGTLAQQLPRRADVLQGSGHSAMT
UniProt Q01484: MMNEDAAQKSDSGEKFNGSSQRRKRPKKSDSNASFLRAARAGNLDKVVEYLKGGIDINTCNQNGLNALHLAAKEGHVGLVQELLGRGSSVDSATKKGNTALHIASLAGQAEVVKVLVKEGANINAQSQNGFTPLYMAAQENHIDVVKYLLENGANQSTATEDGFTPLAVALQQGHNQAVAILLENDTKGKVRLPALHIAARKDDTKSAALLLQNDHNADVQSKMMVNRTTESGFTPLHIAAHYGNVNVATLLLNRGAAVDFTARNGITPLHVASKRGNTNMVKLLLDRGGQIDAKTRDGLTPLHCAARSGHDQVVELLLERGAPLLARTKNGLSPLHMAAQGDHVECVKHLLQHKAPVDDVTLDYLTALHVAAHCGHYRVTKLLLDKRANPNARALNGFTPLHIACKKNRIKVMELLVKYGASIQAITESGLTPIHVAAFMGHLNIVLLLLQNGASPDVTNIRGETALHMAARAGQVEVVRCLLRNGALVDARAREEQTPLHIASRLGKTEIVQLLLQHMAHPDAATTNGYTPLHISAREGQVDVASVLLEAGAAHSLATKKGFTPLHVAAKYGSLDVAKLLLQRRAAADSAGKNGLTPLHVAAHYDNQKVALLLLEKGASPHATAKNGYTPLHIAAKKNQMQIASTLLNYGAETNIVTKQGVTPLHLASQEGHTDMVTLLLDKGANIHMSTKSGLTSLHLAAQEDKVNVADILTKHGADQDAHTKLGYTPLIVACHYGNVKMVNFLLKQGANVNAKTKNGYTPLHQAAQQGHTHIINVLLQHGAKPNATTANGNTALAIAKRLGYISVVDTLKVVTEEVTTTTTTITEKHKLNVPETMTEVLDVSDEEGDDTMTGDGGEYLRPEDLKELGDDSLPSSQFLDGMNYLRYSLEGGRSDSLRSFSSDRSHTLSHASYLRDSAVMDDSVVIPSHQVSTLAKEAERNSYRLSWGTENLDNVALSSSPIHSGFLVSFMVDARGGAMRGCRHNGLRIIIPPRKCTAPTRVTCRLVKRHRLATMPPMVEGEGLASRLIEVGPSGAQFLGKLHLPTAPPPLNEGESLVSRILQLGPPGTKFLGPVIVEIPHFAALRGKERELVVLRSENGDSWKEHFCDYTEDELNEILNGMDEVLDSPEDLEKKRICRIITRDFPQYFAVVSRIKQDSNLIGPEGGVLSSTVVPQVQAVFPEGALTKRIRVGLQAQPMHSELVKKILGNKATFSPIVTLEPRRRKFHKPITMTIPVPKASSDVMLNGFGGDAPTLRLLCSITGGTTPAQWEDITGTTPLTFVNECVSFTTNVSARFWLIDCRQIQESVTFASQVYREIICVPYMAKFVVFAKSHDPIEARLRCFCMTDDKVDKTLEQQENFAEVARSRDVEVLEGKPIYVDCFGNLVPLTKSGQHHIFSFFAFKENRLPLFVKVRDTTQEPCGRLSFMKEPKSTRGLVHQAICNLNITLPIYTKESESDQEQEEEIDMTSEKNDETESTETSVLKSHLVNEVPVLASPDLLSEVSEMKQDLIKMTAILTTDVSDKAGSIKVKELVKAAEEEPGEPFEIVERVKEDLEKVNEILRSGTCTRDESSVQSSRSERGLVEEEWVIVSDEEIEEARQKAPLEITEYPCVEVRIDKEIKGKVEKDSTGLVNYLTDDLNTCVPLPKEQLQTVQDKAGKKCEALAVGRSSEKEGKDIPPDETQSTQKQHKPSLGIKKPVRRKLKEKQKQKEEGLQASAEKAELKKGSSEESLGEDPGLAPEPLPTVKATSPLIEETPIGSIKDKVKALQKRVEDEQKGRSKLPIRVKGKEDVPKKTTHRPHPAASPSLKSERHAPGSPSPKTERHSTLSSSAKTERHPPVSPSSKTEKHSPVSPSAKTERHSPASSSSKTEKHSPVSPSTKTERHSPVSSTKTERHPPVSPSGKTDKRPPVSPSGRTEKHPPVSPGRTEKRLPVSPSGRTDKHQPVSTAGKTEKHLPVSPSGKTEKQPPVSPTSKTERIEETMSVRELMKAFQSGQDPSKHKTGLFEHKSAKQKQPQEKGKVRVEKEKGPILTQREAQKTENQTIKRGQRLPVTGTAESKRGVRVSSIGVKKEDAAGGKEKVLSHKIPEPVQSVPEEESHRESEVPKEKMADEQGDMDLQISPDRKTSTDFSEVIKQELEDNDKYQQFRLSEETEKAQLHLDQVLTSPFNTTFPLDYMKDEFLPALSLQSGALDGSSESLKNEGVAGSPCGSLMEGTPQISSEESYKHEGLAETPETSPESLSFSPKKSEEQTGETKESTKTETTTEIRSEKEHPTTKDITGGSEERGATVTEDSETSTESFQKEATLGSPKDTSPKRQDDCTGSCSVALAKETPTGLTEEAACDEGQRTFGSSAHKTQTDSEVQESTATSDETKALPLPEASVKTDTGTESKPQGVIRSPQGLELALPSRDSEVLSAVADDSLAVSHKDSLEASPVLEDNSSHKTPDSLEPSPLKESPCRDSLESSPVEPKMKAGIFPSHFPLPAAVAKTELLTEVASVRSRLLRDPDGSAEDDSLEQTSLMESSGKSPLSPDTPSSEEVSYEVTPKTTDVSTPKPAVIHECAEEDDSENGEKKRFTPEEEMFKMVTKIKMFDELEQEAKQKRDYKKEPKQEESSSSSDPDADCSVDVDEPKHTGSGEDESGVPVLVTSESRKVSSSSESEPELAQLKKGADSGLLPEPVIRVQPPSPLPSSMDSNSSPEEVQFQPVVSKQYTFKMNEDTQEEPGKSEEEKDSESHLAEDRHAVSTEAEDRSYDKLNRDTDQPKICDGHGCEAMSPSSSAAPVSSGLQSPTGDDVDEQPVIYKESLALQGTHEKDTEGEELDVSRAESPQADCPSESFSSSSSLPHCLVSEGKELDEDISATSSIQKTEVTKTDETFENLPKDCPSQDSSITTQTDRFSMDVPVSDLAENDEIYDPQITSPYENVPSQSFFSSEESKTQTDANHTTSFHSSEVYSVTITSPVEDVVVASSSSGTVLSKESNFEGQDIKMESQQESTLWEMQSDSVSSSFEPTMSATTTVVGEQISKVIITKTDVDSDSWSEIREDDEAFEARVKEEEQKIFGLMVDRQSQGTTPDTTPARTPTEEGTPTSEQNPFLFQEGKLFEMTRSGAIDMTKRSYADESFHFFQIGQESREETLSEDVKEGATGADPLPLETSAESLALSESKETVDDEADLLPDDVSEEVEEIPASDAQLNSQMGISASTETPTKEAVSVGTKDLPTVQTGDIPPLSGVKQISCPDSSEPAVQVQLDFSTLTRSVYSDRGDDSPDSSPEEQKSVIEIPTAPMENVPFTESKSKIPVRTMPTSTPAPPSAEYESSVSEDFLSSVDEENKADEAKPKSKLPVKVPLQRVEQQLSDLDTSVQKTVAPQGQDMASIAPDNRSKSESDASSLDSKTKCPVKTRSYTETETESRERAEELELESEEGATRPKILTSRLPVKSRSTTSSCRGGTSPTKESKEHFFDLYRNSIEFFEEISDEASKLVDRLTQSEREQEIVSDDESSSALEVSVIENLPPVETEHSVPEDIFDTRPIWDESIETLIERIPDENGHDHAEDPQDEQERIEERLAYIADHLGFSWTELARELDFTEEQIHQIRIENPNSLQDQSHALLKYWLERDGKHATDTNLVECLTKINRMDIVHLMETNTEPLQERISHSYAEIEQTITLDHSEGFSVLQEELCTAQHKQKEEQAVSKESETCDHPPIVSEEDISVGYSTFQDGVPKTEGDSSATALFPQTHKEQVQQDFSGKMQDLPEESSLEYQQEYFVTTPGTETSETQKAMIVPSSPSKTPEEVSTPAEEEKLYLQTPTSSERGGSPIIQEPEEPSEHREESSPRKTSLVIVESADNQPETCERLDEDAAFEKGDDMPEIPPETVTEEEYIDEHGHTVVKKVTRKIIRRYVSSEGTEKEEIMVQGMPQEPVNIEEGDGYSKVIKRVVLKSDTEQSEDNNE
UniProt Q8N6D5: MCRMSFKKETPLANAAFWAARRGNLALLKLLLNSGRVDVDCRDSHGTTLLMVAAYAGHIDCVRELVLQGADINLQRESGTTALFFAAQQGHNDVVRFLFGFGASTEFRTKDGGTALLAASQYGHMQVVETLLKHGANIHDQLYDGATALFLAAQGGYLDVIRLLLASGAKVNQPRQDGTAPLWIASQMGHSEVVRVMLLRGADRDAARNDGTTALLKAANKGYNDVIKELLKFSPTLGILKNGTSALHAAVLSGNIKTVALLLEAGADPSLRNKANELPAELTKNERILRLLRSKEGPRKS
UniProt Q9BT30: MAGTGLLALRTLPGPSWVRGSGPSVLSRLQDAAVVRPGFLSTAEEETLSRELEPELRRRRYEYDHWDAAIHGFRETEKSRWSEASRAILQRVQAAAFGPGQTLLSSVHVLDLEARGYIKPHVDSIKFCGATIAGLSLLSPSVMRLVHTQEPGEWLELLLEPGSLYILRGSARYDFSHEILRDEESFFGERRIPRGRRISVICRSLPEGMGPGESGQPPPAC

Tests used:
Assay in all cases: log2 fold change, soluble protein after heating vs DMSO (PISA); higher = thermal stabilisation; K562 lysate, 10 uM; active = over 0.2 and 3.5 SD of the protein, either way, in both replicates (recomputed)
[1] = compound: CC(=O)c1cnc2ccc(-c3cc(Cl)c(O)c(Cl)c3)nc2c1N[C@H]1CC[C@H](CN(C)C)CC1
Procedure, shortened: (§1)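 K562 pellets were dounce-homogenised in PBS pH 7.4 containing 1 mM MgCl2, and the crude extract, at 1 mg/mL protein, was exposed to 10 μM compound for 30 min. Aliquots were heated for 3 min across 48°C-58°C, pooled, brought to 0.5% NP-40 at 4°C and spun at 21,000xg for 90 min, with the supernatant taken as soluble protein. TMTpro 16plex LC-MS/MS with equalised channel sums quantified that protein. Values are log-two fold changes in thermal stability relative to solvent controls, taken from duplicates.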

ralimetinib = compound: CC(C)(C)Cn1c(N)nc2ccc(-c3[nH]c(C(C)(C)C)nc3-c3ccc(F)cc3)nc21 [ralimetinib]
Procedure, shortened: as §1

[2] = compound: CC(C)(O)CC(=O)NCCn1ccc2ncnc(Nc3ccc(Oc4cccc(C(F)(F)F)c4)c(Cl)c3)c21
Procedure, shortened: as §1

[3] = compound: CC(C)C1=C2N=C(C=C(N2N=C1)NCC3=CC=CC=C3)NCCCCCCN
Procedure, shortened: as §1

[4] = compound: CC1=C(C(CC(=O)N1)C2=CC=C(C=C2)C(F)(F)F)C(=O)NC3=C(C=C4C(=C3)C=NN4)F
Procedure, shortened: as §1

[5] = compound: CC1=C(C2=C(C=C1)C(=O)C3=CC=CC=C3N2CCCN)C
Procedure, shortened: as §1

[6] = compound: CC1=C(C=C(C=C1)NC(=O)C2=CC(=CC=C2)C(C)(C)C#N)NC3=CC4=C(C=C3)N=CN(C4=O)C
Procedure, shortened: as §1

[7] = compound: CC1=C(C=C(C=C1)NC(=O)C2=CC(=CC=C2)N(C)C)NC(=O)C3=CC=C(C=C3)O
Procedure, shortened: as §1

[8] = compound: CC1=CC=C(C=C1)SC2=C3C=C(SC3=CN=C2)C(=O)N
Procedure, shortened: as §1

vemurafenib = compound: CCCS(=O)(=O)Nc1ccc(F)c(C(=O)c2c[nH]c3ncc(-c4ccc(Cl)cc4)cc23)c1F [vemurafenib]
Procedure, shortened: as §1

[9] = compound: CCCS(=O)(=O)Nc1ccc(F)c(C(=O)c2c[nH]c3ncc(Cl)cc23)c1F
Procedure, shortened: as §1

[10] = compound: CC[C@@H]1C(=O)N(C)c2cnc(Nc3ccc(C(=O)NC4CCN(C)CC4)cc3OC)nc2N1C1CCCC1
Procedure, shortened: as §1

volasertib = compound: CC[C@@H]1C(=O)N(C)c2cnc(Nc3ccc(C(=O)N[C@H]4CC[C@H](N5CCN(CC6CC6)CC5)CC4)cc3OC)nc2N1C(C)C [volasertib]
Procedure, shortened: as §1

[11] = compound: CCn1c(C(=O)N(C2CC2)C2CC2)cc2c3c(ncn3C)c(Nc3cc(C)n(C)n3)nc21
Procedure, shortened: as §1

[12] = compound: CCn1cc(-c2ccnc3[nH]c(-c4cccc(CN(C)C)c4)cc23)c(-c2ccc(NC(=O)N(C)C)cc2)n1
Procedure, shortened: as §1

[13] = compound: CN1CCC(CNc2ccc3ncc(-c4cccc(OC(F)(F)F)c4)n3n2)CC1
Procedure, shortened: as §1

saracatinib = compound: CN1CCN(CCOc2cc(OC3CCOCC3)c3c(Nc4c(Cl)ccc5c4OCO5)ncnc3c2)CC1 [saracatinib]
Procedure, shortened: as §1

sotrastaurin = compound: CN1CCN(c2nc(C3=C(c4c[nH]c5ccccc45)C(=O)NC3=O)c3ccccc3n2)CC1 [sotrastaurin]
Procedure, shortened: as §1

ibrutinib = compound: C=CC(=O)N1CCC[C@@H](n2nc(-c3ccc(Oc4ccccc4)cc3)c3c(N)ncnc32)C1 [ibrutinib]
Procedure, shortened: as §1

barasertib = compound: CCN(CCCOc1ccc2c(Nc3cc(CC(=O)Nc4cccc(F)c4)[nH]n3)ncnc2c1)CCOP(=O)(O)O [barasertib]
Procedure, shortened: as §1

Target	log2 fold change [1]	log2 fold change (ralimetinib)	log2 fold change [2]	log2 fold change [3]	log2 fold change [4]	log2 fold change [5]	log2 fold change [6]	log2 fold change [7]	log2 fold change [8]	log2 fold change (vemurafenib)	log2 fold change [9]	log2 fold change [10]	log2 fold change (volasertib)	log2 fold change [11]	log2 fold change [12]	log2 fold change [13]	log2 fold change (saracatinib)	log2 fold change (sotrastaurin)	log2 fold change (ibrutinib)	log2 fold change (barasertib)
ANAPC16 (UniProt Q96DE5)	inactive: -0.052	inactive: 0.052	inactive: 0.008	inactive: 0.028	inactive: 0.111	inactive: -0.05	inactive: 0.079	inactive: -0.03	inactive: 0.075	inactive: -0.071	inactive: 0.006	inactive: 0.216	inactive: 0.003	inactive: 0.124	inactive: 0.005	inactive: -0.134	inactive: 0.109	inactive: -0.01	–	–
AKTIP isoform 2 (UniProt Q9H8T0)	inactive: 0.176	inactive: 0.182	inactive: -0.161	inactive: 0.161	–	inactive: 0.108	–	inactive: -0.287	inactive: 0.029	–	inactive: -0.075	inactive: -0.037	inactive: -0.116	inactive: 0.234	–	–	inactive: 0.029	–	–	–
ALDOA (UniProt H3BPS8)	inactive: 0.066	–	–	inactive: -0.108	inactive: -0.082	–	–	–	inactive: 0	inactive: -0.011	inactive: -0.135	inactive: 0.048	inactive: 0.094	–	inactive: 0.03	inactive: 0.08	–	–	inactive: 0.116	inactive: 0.086
ALDH9A1 (UniProt P49189)	–	inactive: 0.046	inactive: -0.006	–	–	inactive: 0.052	inactive: -0.039	inactive: -0.003	–	inactive: 0.174	–	–	–	inactive: -0.014	–	–	inactive: -0.067	inactive: 0.008	inactive: -0.093	inactive: -0.109
AP4M1 (UniProt O00189)	–	inactive: -0.01	inactive: 0.033	inactive: 0.048	inactive: -0.042	inactive: -0.042	inactive: 0.036	inactive: -0.022	–	inactive: 0.106	–	inactive: 0.23	–	inactive: -0.018	inactive: 0.224	inactive: -0.005	inactive: -0.043	inactive: -0.041	inactive: 0.047	inactive: 0.052
ANKHD1 (UniProt D6RHC4)	inactive: 0.05	inactive: 0.029	inactive: -0.116	inactive: 0.135	–	inactive: -0.234	–	inactive: -0.002	inactive: 0.058	–	inactive: -0.113	–	inactive: -0.093	inactive: 0.027	–	–	inactive: 0	–	–	–
ANKRD13C (UniProt Q8N6S4)	–	inactive: 0	inactive: -0.183	–	–	–	–	inactive: -0.024	–	–	–	–	–	inactive: -0.07	–	–	–	–	inactive: -0.054	inactive: 0.078
ANKRD50 (UniProt Q9ULJ7)	inactive: 0.02	inactive: -0.022	inactive: 0.031	inactive: -0.35	inactive: -0.046	–	inactive: 0.18	inactive: 0	inactive: -0.056	–	inactive: -0.009	inactive: 0.075	inactive: 0.008	inactive: 0.069	inactive: -0.171	inactive: 0.158	–	inactive: -0.068	–	–
ALAS1 (UniProt P13196)	inactive: -0.05	inactive: -0.048	inactive: -0.041	–	inactive: 0.068	inactive: 0.063	–	inactive: 0.019	inactive: 0.084	–	inactive: 0.072	inactive: 0.128	inactive: -0.017	inactive: 0.008	inactive: 0.026	inactive: 0.064	inactive: -0.141	–	inactive: -0.055	inactive: -0.47
ANP32E isoform 3 (UniProt Q9BTT0)	–	–	–	–	–	–	–	–	–	inactive: 0.034	–	inactive: -0.026	–	–	active: -0.724	inactive: 0.468	–	–	inactive: -0.065	inactive: -0.086
ANKRD40 (UniProt Q6AI12)	–	inactive: 0.062	inactive: 0.05	inactive: 0.051	inactive: 0.027	inactive: -0.231	inactive: 0.075	inactive: 0.087	–	inactive: 0.501	–	inactive: -0.118	–	inactive: -0.066	inactive: 0.094	inactive: -0.075	inactive: -0.101	inactive: 0.012	inactive: 0.008	inactive: -0.091
ANXA6 (UniProt E5RK69)	inactive: -0.102	–	–	inactive: -0.098	inactive: 0.121	inactive: -0.122	inactive: -0.01	–	inactive: -0.008	–	inactive: -0.092	inactive: -0.061	inactive: -0.108	–	–	–	inactive: -0.025	inactive: 0.278	–	–
ANKRD16 (UniProt Q6P6B7)	inactive: -0.016	–	–	–	inactive: 0.064	inactive: -0.084	inactive: -0.023	–	inactive: -0.127	–	inactive: -0.009	inactive: -0.041	inactive: 0.1	–	inactive: 0.082	inactive: -0.139	inactive: -0.039	inactive: 0.048	inactive: 0.161	inactive: -0.038
ANKRD31 (UniProt Q8N7Z5)	inactive: 0.208	–	–	–	–	inactive: -0.084	inactive: -0.157	–	inactive: -0.115	–	inactive: 0.025	inactive: -0.024	inactive: -0.011	–	–	–	inactive: 0.026	inactive: -0.038	inactive: -0.027	inactive: 0.076
ANKS3 (UniProt Q6ZW76)	inactive: -0.01	–	–	–	–	inactive: 0.065	inactive: 0.102	–	inactive: -0.053	inactive: 0.006	inactive: -0.063	inactive: 0.166	inactive: 0.018	–	inactive: 0.039	inactive: -0.013	inactive: -0.127	inactive: -0.04	inactive: -0.167	inactive: 0.196
ANK2 (UniProt Q01484)	–	inactive: -0.025	inactive: -0.181	–	inactive: -0.051	inactive: -0.044	inactive: -0.048	inactive: -0.031	–	–	–	–	–	inactive: 0.027	inactive: -0.001	inactive: -0.075	inactive: -0.019	inactive: 0.085	inactive: -0.158	inactive: 0.184
ANKRD29 (UniProt Q8N6D5)	inactive: -0.047	–	–	inactive: 0.031	inactive: -0.198	inactive: -0.127	inactive: 0.291	–	inactive: -0.059	inactive: 0.344	inactive: 0.024	inactive: 0.189	inactive: -0.016	–	inactive: -0.22	inactive: 0.145	inactive: 0.059	inactive: -0.047	inactive: 0.022	inactive: 0.158
ANKHD1 isoform 2 (UniProt Q8IWZ3)	–	inactive: 0.023	inactive: 0.081	inactive: -0.124	inactive: 0.067	inactive: 0	inactive: -0.046	inactive: 0.038	–	–	–	inactive: -0.013	–	inactive: 0.08	inactive: 0.077	inactive: -0.083	inactive: 0.002	inactive: 0.056	inactive: 0.017	inactive: -0.012
ANKRD12 (UniProt Q6UB98)	–	inactive: 0.002	inactive: 0.007	–	–	–	–	inactive: -0.034	–	–	–	inactive: 0.054	–	inactive: -0.03	–	–	–	–	–	–
AMDHD2 (UniProt Q9Y303)	–	–	–	–	–	–	inactive: 0.014	–	–	inactive: -0.128	–	–	–	–	inactive: -0.116	inactive: 0.052	–	inactive: 0.047	–	–
ALKBH7 (UniProt Q9BT30)	–	inactive: 0.116	inactive: 0.09	inactive: -0.085	inactive: 0.256	inactive: -0.012	inactive: 0.077	inactive: 0.019	–	–	–	inactive: -0.031	–	inactive: 0.072	inactive: 0.233	inactive: -0.2	inactive: -0.012	inactive: -0.016	–	–
ANAPC13 (UniProt Q9BS18)	–	–	–	–	–	–	–	–	–	inactive: -0.084	–	inactive: -0.012	–	–	–	–	–	–	–	–
ALG13 isoform 2 (UniProt Q9NP73)	–	–	–	–	inactive: 0.03	–	–	–	–	–	–	–	–	–	inactive: 0.016	inactive: -0.098	–	–	–	–
ANKS6 isoform 4 (UniProt Q68DC2)	–	inactive: 0.121	inactive: -0.373	inactive: 0.037	inactive: -0.009	inactive: -0.079	inactive: 0.01	inactive: 0.213	–	–	–	inactive: 0.029	–	inactive: 0.062	–	–	inactive: -0.044	inactive: 0.1	–	–

Two records picked at random from those above, as already listed:
Target	log2 fold change [1]	log2 fold change (ralimetinib)	log2 fold change [2]	log2 fold change [3]	log2 fold change [4]	log2 fold change [5]	log2 fold change [6]	log2 fold change [7]	log2 fold change [8]	log2 fold change (vemurafenib)	log2 fold change [9]	log2 fold change [10]	log2 fold change (volasertib)	log2 fold change [11]	log2 fold change [12]	log2 fold change [13]	log2 fold change (saracatinib)	log2 fold change (sotrastaurin)	log2 fold change (ibrutinib)	log2 fold change (barasertib)
ANAPC16 (UniProt Q96DE5)	inactive: -0.052	inactive: 0.052	inactive: 0.008	inactive: 0.028	inactive: 0.111	inactive: -0.05	inactive: 0.079	inactive: -0.03	inactive: 0.075	inactive: -0.071	inactive: 0.006	inactive: 0.216	inactive: 0.003	inactive: 0.124	inactive: 0.005	inactive: -0.134	inactive: 0.109	inactive: -0.01	–	–
ANKS3 (UniProt Q6ZW76)	inactive: -0.01	–	–	–	–	inactive: 0.065	inactive: 0.102	–	inactive: -0.053	inactive: 0.006	inactive: -0.063	inactive: 0.166	inactive: 0.018	–	inactive: 0.039	inactive: -0.013	inactive: -0.127	inactive: -0.04	inactive: -0.167	inactive: 0.196
